Experimental data taken from publication PMC7037732, “Synthesis of Combretastatin A-4 and 3′-Aminocombretastatin A-4 derivatives with Aminoacid Containing Pendants and Study of their Interaction with Tubulin and as Downregulators of the VEGF, hTERT and c-Myc Gene Expression” (Molecules, 2020).

Key:
[1] = test system: MCF-7 (breast adenocarcinoma); assay: Inhibition of cell proliferation (MTT), MCF-7; format: cell-based, human; conditions: IC50 (HEK-293)/IC50 (MCF-7)
Text: (§1) The ability of the synthetic compounds to inhibit cell proliferation was established by means of their IC50 values towards the tumor cell lines HT-29 (human colon adenocarcinoma), MCF-7 (breast adenocarcinoma) and A-549 (human pulmonary adenocarcinoma), as well as towards the nontumor cell line HEK-293 (human embryonic kidney cells). Results for compounds derived from CA-4 are presented in Table 1, along with the calculated selectivity indexes SIA (for HT-29 cell line), SIB (for MCF-7 cell line) and SIc (for A-549 cell line), obtained by dividing the IC50 values of the nontumor cell line (HEK-293) by those of the corresponding tumor cell line. The higher the SI index, the higher the therapeutic safety margin.
(§2) Cell culture media were purchased from Gibco (Grand Island, NY, USA). Fetal bovine serum (FBS) was a product of Harlan-Seralab (Belton, U.K.). Supplements and other chemicals not listed in this section were obtained from Sigma Chemical Co. (St. Louis, MO, USA). Plastics for cell culture were supplied by Thermo Fischer Scientific Inc., Madrid, Spain. All tested compounds were dissolved in DMSO at a concentration of 10 μg/mL and stored at −20 °C until use. HT-29, MCF-7, A-549 and HEK-293 cell lines were maintained in a Dulbecco’s modified Eagle’s medium (DMEM) containing glucose (1 g/L), glutamine (2 mM), penicillin (50 IU/mL), streptomycin (50 μg/mL) and amphotericin B (1.25 μg/mL), supplemented with 10% FBS. Cells from human non-small lung carcinoma (clone A549; ATCC n°: CCL2, MD, USA) were routinely grown at 37 °C in a humidified atmosphere of 5% CO2. Cells were maintained in a standard medium composed of RPMI 1640 (Lonza, Group Ltd., Basel, Switzerland), supplemented with 10% fetal bovine serum (FBS), 2 mM L-glutamine and 1% penicillin and streptomycin (Invitrogen). Cells were free from mycoplasma as determined by MycoAlert tests (Lonza, Group Ltd., Basel, Switzerland).
(§3) A total of 5 × 10^3 HT-29, MCF-7 or HEK-293 cells in a total volume of 100 μL of their respective growth media were incubated with serial dilutions of the tested compounds. The 3-(4,5-dimethylthiazol-2-yl)-2,5-diphenyltetrazolium bromide (MTT; Sigma Chemical Co.) dye reduction assay in a 96-well microplate was used, as previously described. […] The resulting formazan was dissolved in 150 μL of 0.04 N HCl/2-propanol and read at 550 nm. All determinations were carried out in triplicate.

[2] = test system: A-549 (human pulmonary adenocarcinoma); assay: Inhibition of cell proliferation (MTT), A-549; format: cell-based; conditions: IC50 (HEK-293)/IC50 (A-549)
Text: as §1
as §2, with “Switzerland). […]” for “Switzerland).”

[3] = test system: HT-29 (human colon adenocarcinoma); assay: Inhibition of cell proliferation (MTT), HT-29; format: cell-based; conditions: IC50 (HEK-293)/IC50 (HT-29)
Text: as §1, §2, §3

Structure (SMILES)	SIB ([1]; Table 2)	SIc ([2]; Table 2)	SIA ([3]; Table 2)	SIA ([3]; Table 1)	SIc ([2]; Table 1)	SIB ([1]; Table 1)	SIA ([3]; Table 1, listed as 6.24)
COc1ccc(/C=C\c2cc(OC)c(OC)c(OC)c2)cc1NC(=O)[C@@H](NC(=O)OCC1c2ccccc2-c2ccccc21)C(C)O (some centres unmarked) [Compound 7.7]	0.5	0.03	–	–	–	–	–
COc1ccc(/C=C\c2cc(OC)c(OC)c(OC)c2)cc1NC(=O)[C@H](Cc1ccc(O)cc1)NC(=O)OCC1c2ccccc2-c2ccccc21 [Compound 7.8]	1.3	0.01	0.9	–	–	–	–
COC(=O)[C@@H](CO)NC(=O)COc1cc(/C=C\c2cc(OC)c(OC)c(OC)c2)ccc1OC [Compound 5.5]	–	–	–	0.8	0.3	–	–
COC(=O)[C@H]1CCCN1C(=O)COc1cc(/C=C\c2cc(OC)c(OC)c(OC)c2)ccc1OC [Compound 5.4]	–	–	–	0.1	0.4	0.6	–
COC(=O)[C@H](Cc1ccc(O)cc1)NC(=O)COc1cc(/C=C\c2cc(OC)c(OC)c(OC)c2)ccc1OC [Compound 3.8]	–	–	–	0.6	0.6	0.8	–
CCOC(=O)COc1cc(/C=C\c2cc(OC)c(OC)c(OC)c2)ccc1OC [Compound 1, Ethyl (Z)-2-(2-methoxy-5-(3,4,5-trimethoxystyryl)phenoxy)acetate]	–	–	–	–	0.4	0.4	–
COc1ccc(/C=C\c2cc(OC)c(OC)c(OC)c2)cc1NC(=O)[C@@H](N)Cc1ccc(O)cc1 [Compound 8.8]	0.5	0.01	–	–	–	–	–
COC(=O)[C@H](CO)NC(=O)COc1cc(/C=C\c2cc(OC)c(OC)c(OC)c2)ccc1OC [Compound 3.6]	–	–	–	–	0.4	–	–
COc1ccc(/C=C\c2cc(OC)c(OC)c(OC)c2)cc1NC(=O)[C@@H](N)Cc1ccccc1 [Compound 8.5]	1.5	0.02	0.8	–	–	–	–
COc1ccc(/C=C\c2cc(OC)c(OC)c(OC)c2)cc1NC(=O)[C@@H](Cc1ccccc1)NC(=O)OCC1c2ccccc2-c2ccccc21 [Compound 9.3]	2.5	0.6	0.9	–	–	–	–
COc1ccc(/C=C\c2cc(OC)c(OC)c(OC)c2)cc1NC(=O)[C@@H](CC(C)C)NC(=O)OCC1c2ccccc2-c2ccccc21 [Compound 9.2]	0.8	0.05	0.05	–	–	–	–
COC(=O)[C@@H](NC(=O)COc1cc(/C=C\c2cc(OC)c(OC)c(OC)c2)ccc1OC)C(C)O (some centres unmarked) [Compound 3.7]	–	–	–	0.8	0.7	1.2	–
COc1ccc(/C=C\c2cc(OC)c(OC)c(OC)c2)cc1OCC(=O)N[C@H](C(=O)O)C(C)C [Compound 4.2]	–	–	–	0.4	0.3	0.6	–
COc1ccc(/C=C\c2cc(OC)c(OC)c(OC)c2)cc1NC(=O)CN [Compound 8.1]	1.1	0.02	1.0	–	–	–	–
COc1ccc(/C=C\c2cc(OC)c(OC)c(OC)c2)cc1NC(=O)[C@@H]1CCCN1 [Compound 8.6]	0.8	2.0	–	–	–	–	–
COc1ccc(/C=C\c2cc(OC)c(OC)c(OC)c2)cc1OCC(=O)NCC(=O)O [Compound 4.1]	–	–	–	–	0.2	0.8	–
COC(=O)[C@H](CC(C)C)NC(=O)COc1cc(/C=C\c2cc(OC)c(OC)c(OC)c2)ccc1OC [Compound 3.3]	–	–	–	0.3	–	0.5	–
COc1ccc(/C=C\c2cc(OC)c(OC)c(OC)c2)cc1NC(=O)[C@H](CCSC)NC(=O)OCC1c2ccccc2-c2ccccc21 [Compound 7.9]	1.6	0.02	0.2	–	–	–	–
COC(=O)CNC(=O)COc1cc(/C=C\c2cc(OC)c(OC)c(OC)c2)ccc1OC [Compound 3.1]	–	–	–	0.7	0.3	1.1	–

Structure (SMILES)	SIB ([1]; Table 2)	SIc ([2]; Table 2)	SIA ([3]; Table 2)	SIA ([3]; Table 1)	SIc ([2]; Table 1)	SIB ([1]; Table 1)	SIA ([3]; Table 1, listed as 6.24)
COc1ccc(/C=C\c2cc(OC)c(OC)c(OC)c2)cc1OCC(=O)N1CCC[C@@H]1C(=O)O [Compound 6.4]	–	–	–	1.1	0.6	1.0	greater than 1
COc1ccc(/C=C\c2cc(OC)c(OC)c(OC)c2)cc1OCC(=O)N[C@H](C(=O)O)C(C)O (some centres unmarked) [Compound 4.7]	–	–	–	0.7	0.6	0.6	–
COc1ccc(/C=C\c2cc(OC)c(OC)c(OC)c2)cc1NC(=O)[C@H](CC(C)C)NC(=O)OCC1c2ccccc2-c2ccccc21 [Compound 7.4]	1.6	0.03	0.6	–	–	–	–
COC(=O)[C@H](NC(=O)COc1cc(/C=C\c2cc(OC)c(OC)c(OC)c2)ccc1OC)C(C)C [Compound 5.1]	–	–	–	0.1	0.8	0.4	–
COc1ccc(/C=C\c2cc(OC)c(OC)c(OC)c2)cc1NC(=O)[C@@H](N)CC(C)C [Compound 8.4]	0.9	0.01	0.9	–	–	–	–
COc1ccc(/C=C\c2cc(OC)c(OC)c(OC)c2)cc1OCC(=O)N[C@H](Cc1ccccc1)C(=O)O [Compound 6.3]	–	–	–	–	0.8	1.1	–
COc1ccc(/C=C\c2cc(OC)c(OC)c(OC)c2)cc1NC(=O)[C@H](C)NC(=O)OCC1c2ccccc2-c2ccccc21 [Compound 7.2]	0.8	0.01	–	–	–	–	–
COC(=O)[C@@H](CC(C)C)NC(=O)COc1cc(/C=C\c2cc(OC)c(OC)c(OC)c2)ccc1OC [Compound 5.2]	–	–	–	0.5	0.6	0.8	–
COc1ccc(/C=C\c2cc(OC)c(OC)c(OC)c2)cc1NC(=O)[C@@H](N)CCSC [Compound 8.9]	1.1	0.04	0.7	–	–	–	–
COc1ccc(/C=C\c2cc(OC)c(OC)c(OC)c2)cc1NC(=O)[C@@H](N)C(C)C [Compound 8.3]	0.6	0.02	0.6	–	–	–	–
COC(=O)[C@@H](Cc1ccccc1)NC(=O)COc1cc(/C=C\c2cc(OC)c(OC)c(OC)c2)ccc1OC [Compound 5.3]	–	–	–	0.3	0.4	0.7	–
COC(=O)[C@@H]1CCCN1C(=O)COc1cc(/C=C\c2cc(OC)c(OC)c(OC)c2)ccc1OC [Compound 3.5]	–	–	–	0.4	0.4	0.8	–
COc1ccc(/C=C\c2cc(OC)c(OC)c(OC)c2)cc1OCC(=O)N[C@@H](Cc1ccc(O)cc1)C(=O)O [Compound 4.8]	–	–	–	0.6	–	0.8	–
COc1ccc(/C=C\c2cc(OC)c(OC)c(OC)c2)cc1NC(=O)[C@@H](N)C(C)O (some centres unmarked) [Compound 8.7]	1.1	0.03	–	–	–	–	–
COc1ccc(/C=C\c2cc(OC)c(OC)c(OC)c2)cc1OCC(=O)N[C@H](CC(C)C)C(=O)O [Compound 6.2]	–	–	–	–	0.7	2.0	–
COc1ccc(/C=C\c2cc(OC)c(OC)c(OC)c2)cc1NC(=O)[C@H](C)N [Compound 8.2]	0.8	0.01	–	–	–	–	–
COc1ccc(/C=C\c2cc(OC)c(OC)c(OC)c2)cc1OCC(=O)N[C@@H](CCSC)C(=O)O [Compound 4.9]	–	–	–	–	<0.1	3.1	–
COc1ccc(/C=C\c2cc(OC)c(OC)c(OC)c2)cc1OCC(=O)N1CCC[C@H]1C(=O)O [Compound 4.5]	–	–	–	–	0.4	0.5	–
